This is an account of results in PubChem BioAssay AID2685 (National Center for Advancing Translational Sciences (NCATS), 2010).

Broadly, the AC50 is the midpoint of the concentration-response curve, whichever way the signal moves. Read a high AC50 as weaker potency.

SMILES strings stand for the structures. The list shows a part of the results. The main result of the screen is listed elsewhere. These columns were measured beside it and carry no call. Compounds called inactive in the main read-out are mostly missing here. Potencies come from curve fits of mixed quality, noted in brackets.

The nature of this assay: qHTS Assay for Lipid Storage Modulators in Drosophila S3 Cells.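 For cell number change: cells counted by Cell Tracker Red CMTPX staining in the red channel.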 The note with it: BODIPY lipid droplet fluorescence, 18-24 h; for cell number change: measured here: cell count max response, cells fed with added oleic acid. From the text: NIH Molecular Libraries Probe Production Centers Network [MLPCN] NIH Chemical Genomics Center [NCGC] MLPCN Grant: 1 R03 MH085686-01 Assay Submitter (PI): Beller, Mathias; Max-Planck-Institut fur Biophysikalische Chemie NCGC Assay Overview: Storing lipids as a reservoir for energy or the anabolism of elementary metabolites is a common feature of probably all cells and is conserved from bacteria to humans. The universal cellular lipid storage organelle is the so-called lipid storage droplet (LD). Although ubiquitous, LDs share a simple structure composed of a hydrophobic core that harbors the storage lipids, which is shielded by a droplet-specific phospholipid monolayer to which proteins are attached. The current model of LD biogenesis involves an incorporation of the lipid core into the membrane leaflets of the endoplasmic reticulum (ER) followed by a subsequent budding-like maturation of a LD, which ultimately pinches off. Once released, LD volume can increase by localized lipogenesis or fusion of existing droplet. Storage lipids are re-mobilized enzymatically by lipase activity. Lipase regulation in the adipocyte is heavily studied and involves multiple components including catecholamine signaling, the LD-associated proteins Perilipin and comparative gene identification (CGI-58) and at least two lipases named hormone sensitive lipase (HSL) and adipocyte triglyceride lipase (ATGL). LD regulation outside of the adipocyte is poorly understood and only few components are known. However, there is an urgent need to learn more about ectopic fat depots as mislocalized storage of lipids, for example in the liver or muscle, is an eminent health problem associated with insulin resistance or the metabolic syndrome. We developed a laser-scanning cytometer assay to enable 1,536-well screening and combined the results of the small molecules screen with an RNAi database based on lipid storage.
Triacsin C (Sigma-Aldrich T-4540), an inhibitor of long-chain fatty acyl CoA synthetase that blocks synthesis of triglycerides, was used as a positive control for lipid under-storage. A total of 23 nL of compound solution of different concentrations were transferred to the assay plates using a Kalypsys pin tool equipped with a 1,536-pin array containing 10-nL slotted pins (FP1S10, 0.457-mm diameter, 50.8 mm long; V&P Scientific). One microliter of oleic acid (400 uM) was added, and the plate was lidded with stainless steel rubber gasket lined lids containing pinholes. […] Fluorescence was detected by excitation of the fluorophores with a 488-nm laser on an Acumen Explorer (TTP Lab Tech). The total intensity in channel 2 (500-530 nm) reflected lipid droplet accumulation. Cells were detected using channel 3 (575-640 nm) with 5-um width and 100-um depth filters. The ratio of the number of objects in PMT channel 2 over the number of objects in PMT channel 3 was also calculated. Percent activity was computed relative to an internal control (100% inhibited lipid droplet deposition due to the presence of 20 uM Triacsin C), which was added to 32 wells/plate.
Background: In qHTS, concentration-response curves come from the screen itself.

The mark [1] stands for this setting: measured here: lipid fluorescence (Fed channel) AC50, cells fed with added oleic acid.
Where [2] appears, read: measured here: cell number channel AC50, cells fed with added oleic acid.

As to `O=C(c1cccs1)N(Cc1ccco1)c1nc(-c2ccc(F)cc2)cs1`, the cell number change is -18.5%. Besides, the AC50 under setting [1] is 29.1 µM [falling, single point].

With `O=C(Nc1nc(-c2cc3ccccc3oc2=O)cs1)c1ccco1`, the AC50 under setting [2] was 2.91 µM [rising, single point]. In the case of `CN(C(=O)c1ccc(NC(=O)Cc2cccc(NC(=O)C3CCCN(C(=O)C4CCCC4)C3)c2)cc1)C1CCCC1` (centres undefined), the cell number change is -15.3%. The half-maximal activity concentration (AC50) under setting [1] was 6.51 µM [rising, single point]. As for `O=C(Nc1nnc(-c2ccc3c(c2)OCCO3)o1)C1CCCCC1`, the cell number change was 35.9%. For the same molecule, the AC50 under setting [2] was 29.1 µM [rising, single point]. Also, the AC50 under setting [1] was 29.1 µM [rising, single point]. Consider `O=C(NCC(c1ccco1)N1CCc2ccccc2C1)C(=O)Nc1cc(F)ccc1F` (centres undefined), for which the cell number change was 31.5%. Also, the AC50 under setting [2] was 7.31 µM [rising, partial curve, poor fit]. Also, the AC50 under setting [1] is 29.1 µM [rising, single point]. For `CC(=O)N1CCc2cc(S(=O)(=O)CCC(=O)O)ccc21`, the cell number change is -31.9%. Besides, under setting [2], the AC50 is 1.16 µM [falling, full curve]. Under setting [1], the AC50 is 0.0058 µM [falling, full curve]. For `O=C(Cc1ccccc1F)NC1CCCc2ccccc21` (centres undefined), under setting [1], the AC50 was 0.0517 µM [falling, full curve, poor fit]. Take `COc1ccccc1NS(=O)(=O)c1cc([N+](=O)[O-])ccc1N/N=C/c1sc(N2CCOCC2)nc1-c1ccccc1`: the cell number change was -36.5%. Under setting [2], the AC50 is 0.58 µM [falling, full curve]. Moreover, under setting [1], the AC50 was 0.291 µM [falling, full curve]. Take `NC(=O)C1CCN(c2oc(-c3ccc(F)cc3)nc2S(=O)(=O)c2ccccc2)CC1`: the cell number change was -1.17%. For the same molecule, the AC50 under setting [1] was 9.2 µM [rising, partial curve, poor fit].

For the molecule `COC(=O)c1cn(-c2ccccc2)nc1-c1ccncc1`, the cell number change was determined as 0.905%. Moreover, the AC50 under setting [1] was 2.06 µM [rising, full curve]. For `Oc1c(/C=C/C=C/C=Nc2ccccc2)sc(=S)n1Cc1ccccc1`, the cell number change turned out to be 19.7%. In the case of `COc1ccc(NC(=O)CSCc2ccc(C)cc2)cc1`, the cell number change came out at 42.6%. With `CCn1c(CCC(N)=O)nnc1SCC(=O)c1cc(C)n(C2CC2)c1C`, the cell number change is -24.6%. `Cc1cccc(N(C)C(=O)CCS(=O)(=O)c2cccc3nonc23)c1`: the cell number change is 6.15%. Take `COc1ccc(CCNC(=O)c2ccc(CN3CCC(Cc4ccccc4)CC3)cc2)cc1`: the cell number change came out at 8.32%. Besides, under setting [1], the AC50 was 0.164 µM [rising, full curve, poor fit].

As to `Cn1cnc2c1c(=O)n(Cc1ccc(F)cc1Cl)c(=O)n2C`, the cell number change turned out to be 5.17%. In addition, the AC50 under setting [1] was 4.11 µM [rising, full curve, poor fit]. Turning to `COC(=O)c1ccccc1Sc1c(/C=N/OC(=O)c2ccccc2)c(C(F)(F)F)nn1C`, the AC50 under setting [1] is 5.17 µM [falling, partial curve]. Regarding `O=C(NCc1ccco1)c1ccc(NS(=O)(=O)c2cccc(F)c2)cc1`, the cell number change is -6.29%. For the same molecule, the AC50 under setting [1] is 6.31 µM [falling, single point]. For `O=C(Nc1ccccc1)Nc1ccccc1C(=O)NCC1CC1`, the cell number change came to 5.28%. Besides, under setting [1], the AC50 was 1.64 µM [rising, partial curve, poor fit]. On to `Cc1ccc2oc(-c3ccc(NC(=O)c4cccnc4)cc3)nc2c1`, for which the cell number change was found to be 74.6%. For the same molecule, the AC50 under setting [2] was 11.6 µM [rising, partial curve]. Besides, under setting [1], the AC50 is 14.6 µM [rising, partial curve]. In the case of `CCCC1=C(C(=O)OCC)C(c2ccccc2OC)NC(=O)N1` (centres undefined), the cell number change was -0.32%. In addition, the AC50 under setting [1] was 0.116 µM [falling, single point]. As for `COc1ccc2[nH]c(=O)c(C(c3nnnn3C3CCCC3)N3CCN(Cc4ccc5c(c4)OCO5)CC3)cc2c1` (centres undefined), the cell number change was 29.8%.

As to `COc1ccc(C2NC(=O)NC(O)(C(F)(F)F)C2C(=O)c2ccc(C)cc2)cc1` (centres undefined), the cell number change is 5.36%. The AC50 under setting [1] was 3.26 µM [falling, single point]. On to `COCCNC(=O)COc1cccc(Oc2ccccc2)c1`, for which the cell number change worked out at 9.36%. In addition, under setting [1], the AC50 is 0.231 µM [rising, full curve, poor fit]. Take `Cc1ccc(C(=O)N/C(=C\c2cn(C)c3ccccc23)C(=O)N2CCN(C)CC2)cc1`: the cell number change was determined as 22.6%. For the same molecule, the AC50 under setting [2] was 6.51 µM [rising, single point]. In the case of `CC1CN(C(=O)/C=C/c2ccc(SC(F)F)cc2)CC(C)O1` (centres undefined), the cell number change stood at 19.4%. Moreover, the half-maximal activity concentration (AC50) under setting [1] was 29.1 µM [rising, partial curve]. Regarding `O=C1c2cccc3c(Cl)ccc(c23)C(=O)N1O`, the cell number change came out at 4.61%. In addition, the AC50 under setting [2] was 0.92 µM [falling, full curve, poor fit]. Turning to `CCOc1ccc(C(C)NC(=O)C2CCCC2)cc1` (centres undefined), the AC50 under setting [1] is 0.651 µM [falling, single point]. Consider `C=CCNC(=S)NNC(=O)COc1ccc(Cl)cc1Cl`, for which the cell number change was -26.9%. Also, the AC50 under setting [1] was 25.9 µM [falling, partial curve].

Regarding `COc1ccc(C2=Nn3c(nnc3-c3ccncc3)SC2)cc1OC`, the cell number change turned out to be 15.2%. Besides, the AC50 under setting [1] is 2.59 µM [rising, partial curve]. On to `CCOC(=O)N1CCN(S(=O)(=O)c2cc(Br)cnc2N)CC1`, for which the cell number change is -52.5%. In addition, the AC50 under setting [2] is 0.291 µM [falling, partial curve, poor fit]. Further, the AC50 under setting [1] was 4.61 µM [falling, full curve, poor fit].
